Laboratory results taken from patent US8980908B2, “Non-peptidyl, potent, and selective mu opioid receptor antagonists and their use in treating opioid addiction and opioid induced constipation” (Virginia Commonwealth University, priority 2009, dated 2015).

Test system: mice
Test: Warm-water tail immersion assay, antinociceptive effects (Example 5)
Set-up: species or system mouse (Swiss-Webster)
Conditions: mouse, in vivo

For CN1CC[C@]23c4c5ccc(O)c4O[C@H]2[C@@H](O)C=C[C@H]3[C@H]1C5.O=S(=O)(O)O [morphine, Morphine sulfate], which “ED50 (antinociception)” value is on record?
Its value is 3.24 (2.44-4.31) mg/kg (95% CL).
